Like-named read-outs stand apart in the source and are kept apart here. Results are given in words; binding and its absence hold for the method and conditions named. In cells and extracts the contact can be indirect. Some binding calls cover weakened binding; strength is not graded here.
Assays:
Test in all cases: co-IP
[1] = molecular target: IQGAP1 (mouse (endogenous in mouse T cells)) (UniProt Q9JKF1)
[2] = molecular target: full-length Yes-associated protein (FL FLAG-YAP) (human) (UniProt P46937)
[3] = molecular target: IQGAP1 (mouse (endogenous in mouse T cells)) (UniProt Q9JKF1); remark: listed apart in the source

By UniProt entry, the sequences of proteins in these tests, tags left out.
UniProt Q9JKF1: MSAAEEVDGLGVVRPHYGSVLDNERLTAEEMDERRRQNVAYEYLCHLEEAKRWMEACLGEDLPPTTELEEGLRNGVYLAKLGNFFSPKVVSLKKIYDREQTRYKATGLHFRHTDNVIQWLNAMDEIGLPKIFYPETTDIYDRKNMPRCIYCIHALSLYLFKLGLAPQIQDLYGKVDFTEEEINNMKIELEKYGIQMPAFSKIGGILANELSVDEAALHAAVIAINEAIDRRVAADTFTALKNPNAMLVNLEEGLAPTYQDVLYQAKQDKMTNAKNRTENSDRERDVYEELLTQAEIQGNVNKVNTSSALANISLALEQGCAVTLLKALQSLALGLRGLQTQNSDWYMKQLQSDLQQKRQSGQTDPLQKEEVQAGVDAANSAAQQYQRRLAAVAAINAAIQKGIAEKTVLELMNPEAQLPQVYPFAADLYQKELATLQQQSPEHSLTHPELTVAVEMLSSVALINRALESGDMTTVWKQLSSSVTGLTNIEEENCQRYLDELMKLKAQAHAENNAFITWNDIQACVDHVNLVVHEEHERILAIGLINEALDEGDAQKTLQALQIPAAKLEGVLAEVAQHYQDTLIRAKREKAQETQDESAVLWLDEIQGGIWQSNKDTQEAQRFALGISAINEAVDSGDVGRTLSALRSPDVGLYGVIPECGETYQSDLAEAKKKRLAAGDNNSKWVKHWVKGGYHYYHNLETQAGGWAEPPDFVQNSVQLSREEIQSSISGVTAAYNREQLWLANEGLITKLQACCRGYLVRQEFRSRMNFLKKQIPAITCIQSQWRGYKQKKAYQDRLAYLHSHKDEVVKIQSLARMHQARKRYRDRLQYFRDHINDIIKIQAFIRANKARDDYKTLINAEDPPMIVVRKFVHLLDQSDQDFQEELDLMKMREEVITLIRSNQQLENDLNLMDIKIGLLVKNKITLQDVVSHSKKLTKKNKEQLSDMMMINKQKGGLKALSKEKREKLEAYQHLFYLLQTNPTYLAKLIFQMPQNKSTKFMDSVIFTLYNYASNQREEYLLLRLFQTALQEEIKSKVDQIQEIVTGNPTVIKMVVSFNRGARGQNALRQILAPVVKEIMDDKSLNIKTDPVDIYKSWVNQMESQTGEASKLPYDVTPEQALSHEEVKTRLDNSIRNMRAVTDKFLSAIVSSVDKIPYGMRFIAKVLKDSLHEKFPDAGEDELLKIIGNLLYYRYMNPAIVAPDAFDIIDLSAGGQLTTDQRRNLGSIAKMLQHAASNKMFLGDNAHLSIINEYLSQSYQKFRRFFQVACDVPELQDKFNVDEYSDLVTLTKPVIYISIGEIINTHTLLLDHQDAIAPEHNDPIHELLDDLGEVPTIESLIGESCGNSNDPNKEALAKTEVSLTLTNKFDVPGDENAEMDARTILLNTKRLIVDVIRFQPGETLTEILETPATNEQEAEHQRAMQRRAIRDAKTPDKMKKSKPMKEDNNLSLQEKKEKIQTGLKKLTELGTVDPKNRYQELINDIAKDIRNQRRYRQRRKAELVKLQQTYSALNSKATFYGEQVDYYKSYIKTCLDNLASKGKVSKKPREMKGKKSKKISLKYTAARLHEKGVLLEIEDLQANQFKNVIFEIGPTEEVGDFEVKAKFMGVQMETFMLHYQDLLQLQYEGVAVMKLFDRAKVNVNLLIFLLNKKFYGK

binding [1]: binds | binding [2]: binds | binding [3]: binds
B1: Nuclear Factor of Activated T cells 1 (NFAT1) (protein, UniProt Q60591 1-927)
chain: MDVPEPQPDPDGGDGPGHEPGGSPQDELDFSILFDYDYLNPIEEEPIAHKAISSPSGLAYPDDVLDYGLKPCNPLASLSGEPPGRFGEPDSIGFQNFLSPVKPAGASGPSPRIEITPSHELMQAGGALRGRDAGLSPEQPALALAGVAASPRFTLPVPGYEGYREPLCLSPASSGSSASFISDTFSPYTSPCVSPNNAGPDDLCPQFQNIPAHYSPRTSPIMSPRTSLAEDSCLGRHSPVPRPASRSSSPGAKRRHSCAEALVAPLPAASPQRSRSPSPQPSPHVALQDDSIPAGYPPTAGSAVLMDALNTLATDSPCGIPSKIWKTSPDPTPVSTAPSKAGLARHIYPTVEFLGPCEQEERRNSAPESILLVPPTWPKQLVPAIPICSIPVTASLPPLEWPLSNQSGSYELRIEVQPKPHHRAHYETEGSRGAVKAPTGGHPVVQLHGYMENKPLGLQIFIGTADERILKPHAFYQVHRITGKTVTTTSYEKIVGNTKVLEIPLEPKNNMRATIDCAGILKLRNADIELRKGETDIGRKNTRVRLVFRVHVPEPSGRIVSLQAASNPIECSQRSAHELPMVERQDMDSCLVYGGQQMILTGQNFTAESKVVFMEKTTDGQQIWEMEATVDKDKSQPNMLFVEIPEYRNKHIRVPVKVNFYVINGKRKRSQPQHFTYHPVPAIKTEPSDEYEPSLICSPAHGGLGSQPYYPQHPMLAESPSCLVATMAPCQQFRSGLSSPDARYQQQSPAAALYQRSKSLSPGLLGYQQPSLLAAPLGLADAHRSVLVHAGSQGQGQGSTLPHTSSASQQASPVIHYSPTNQQLRGGGHQEFQHIMYCENFGPSSARPGPPPINQGQRLSPGAYPTVIQQQTAPSQRAAKNGPSDQKEALPTGVTVKQEQNLDQTYLDDVNEIIRKEFSGPPSRNQT
modifications: phosphorylated (phospho-NFAT1 band; sites not given)
